PubChem BioAssay AID1671195, Yale University | 2021
Here is an unselected part of about 22,000 deposited reagents. In the full data, about 1,510 (6.9%) were called active. 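Active includes knockdowns raising or lowering LDL uptake; positive z-scores mean more uptake, negative mean less.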 Entries without a mark were called inactive.

Test: 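Knockdowns that increase or decrease uptake of fluorescent LDL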 (primary screen)
Cells: human Huh7 hepatoma cells
Reagents: siRNA pool against human genes, 18 nM
Time to read-out: about 2 to 2.5 days of knockdown, then 8 h LDL uptake
Treatment: DiI-labelled LDL at 30 µg/ml for 8 h, in lipoprotein-deficient serum medium
Measured: 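Per-cell DiI-LDL intensity by automated imaging; well means scaled to the plate median and given as a robust z-score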
Scale: robust z-score: higher = more LDL uptake after knockdown
Active means: 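Active when two or more replicates show a robust z-score above 2 or below -2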

gene symbol,"robust z-score, replicate 1","robust z-score, replicate 2","robust z-score, replicate 3"
SLC39A11,0.248,0.0538,-0.783
LTN1,-0.664,-0.407,0.561
WIZ,-0.931,-0.762,-0.661
AADAT,-0.141,-0.475,-0.691
TPM2,2.47 (active),0.537,4.91
SAA1,0.96,0.745,1.26
CTDSPL2,0.0952,0.752,1
LOC390801 (retired record),0.643,0.595,0.688
LOC391360 (retired record),1.44,0.666,0.562
HERC2,-1.54,-1.57,-1.54
TNFRSF1A,2.46 (active),1.15,3.21
LARP1B,-1.57,-0.427,-1.25
TTBK1,-0.248,-0.518,-0.0623
LOC400575 (retired record),0.0468,0.287,0.155
LYZ,1.12,1.83,0.912
ZMAT5,1.84,-0.16,-0.252
DBF4,-1.4,-0.581,-0.85
LOC388142 (retired record),1.34,1.49,0.622
WT1-AS,2.23,0.733,-0.0674
LOC441134 (retired record),2.73 (active),2.29,2.17
ZNF107,-0.815,-0.75,-1.17
GAL3ST4,0.321,0.74,1.11
COX4I1P1,0.818,0.922,0.69
TAGLN,0.971,0.747,0.31
FOXF2,-1.11,-1.46,-1.34
MRPL49,0.653,0.416,-0.17
ANKRD20A3P,1.01,0.596,1.06
PTP4A3,-1.17,-1.26,-1.23
